40 sequences from publication PMC7862700 can be followed below.

This is a selection; strong and weak results do not stand in their true shares. At the low end of the ranking, values are background and their order means little.

For one assay, the target named is T1, FEV (UniProt Q99581).
T1 sequence: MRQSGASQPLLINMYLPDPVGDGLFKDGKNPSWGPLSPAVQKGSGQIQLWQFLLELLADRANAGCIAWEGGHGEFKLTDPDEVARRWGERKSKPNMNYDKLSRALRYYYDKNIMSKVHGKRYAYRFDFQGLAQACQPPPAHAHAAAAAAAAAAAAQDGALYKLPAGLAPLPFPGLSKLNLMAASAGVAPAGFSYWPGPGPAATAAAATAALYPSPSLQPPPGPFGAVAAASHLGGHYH
Briefly: DAPPL (digital affinity profiling via proximity ligation, sequencing). As to conditions: 10 mM Tris-HCl pH 7.5, 50 mM NaCl, 1 mM DTT, 4% glycerol, room temperature, 30 min; GST-TFs on glutathione beads, 16-mer random dsDNA library, 0.1% …; high values mean tight binding; double strand, one strand shown; scale: fold enrichment (6-mer frequency, TF over GST control).
On to TTAAGT, for which the binding signal is 1.11.

In the case of CCTGGT, the binding signal is 1.25.

ACTAAG showed a binding signal of 1.02.

As for ATCAAT, the binding signal turned out to be 1.05.

Sequence ATACTG displayed a binding signal of 1.04.

AATCGA yielded a binding signal of 0.967.

As for TCTAAG, the binding signal turned out to be 1.13.

As to TAACAA, the binding signal stood at 1.18.

In turn, TAGTCT displayed a binding signal of 0.983.

The sequence CTTAGG came in with a binding signal of 1.11.

As for TAAGGT, the binding signal was 0.995.

As to CCTACA, the binding signal worked out at 1.18.

Sequence AGGTAT yielded a binding signal of 0.97.

For the sequence AAGCTC, the binding signal is 1.14.

The sequence TTCAAG had a binding signal of 1.2.

In turn, TCACGC displayed a binding signal of 1.18.

On to GCCTTT, for which the binding signal was 1.41.

In turn, ATCAGC yielded a binding signal of 0.937.

In turn, TCTCGC showed a binding signal of 1.64.

For TTCGTT, the binding signal is 1.3.

For GTTTAA, the binding signal is 1.11.

Consider ACAGAT, for which the binding signal is 0.963.

TACTGG: the binding signal worked out at 1.01.

In the case of GTTTCG, the binding signal is 1.27.

With TCCTTG, the binding signal is 1.21.

On to ATCATA, for which the binding signal came out at 1.07.

With TTCTTC, the binding signal is 1.66.

GAAAGA yielded a binding signal of 0.974.

Sequence CTCAAA gave a binding signal of 1.28.

Regarding TTCACT, the binding signal is 1.4.

Turning to CTTACG, the binding signal was found to be 1.06.

In the case of TTGTCC, the binding signal was determined as 1.34.

On to AATTCC, for which the binding signal came out at 2.05.

As to CTGACT, the binding signal worked out at 1.32.

In the case of CTCTGT, the binding signal is 1.39.

Regarding ATTAAT, the binding signal stood at 1.16.

With AGCTAA, the binding signal was found to be 1.03.

As for TTCTCA, the binding signal worked out at 1.3.

The sequence TGACTC registered a binding signal of 1.36.

In turn, GCTGAT registered a binding signal of 1.07.

The next assay concerns the target T2, ELF5 (UniProt Q9UKW6-2).
T2 sequence: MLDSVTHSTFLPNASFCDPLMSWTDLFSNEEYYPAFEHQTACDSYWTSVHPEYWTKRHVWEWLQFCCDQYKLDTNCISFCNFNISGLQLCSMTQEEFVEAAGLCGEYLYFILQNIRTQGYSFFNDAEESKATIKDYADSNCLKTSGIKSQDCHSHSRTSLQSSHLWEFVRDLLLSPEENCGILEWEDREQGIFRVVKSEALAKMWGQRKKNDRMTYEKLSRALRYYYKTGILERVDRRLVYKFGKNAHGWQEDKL
Described as above. As to conditions: 10 mM Tris-HCl pH 7.5, 50 mM NaCl, 1 mM DTT, 4% glycerol, room temperature, 30 min; GST-TFs on glutathione beads, 16-mer random dsDNA library, 0.1% …; high values mean tight binding; double strand, one strand shown; scale: fold enrichment (6-mer frequency, TF over GST control).
As for TTAAGT, the binding signal was determined as 1.12.

Turning to ATCAAT, the binding signal was 0.975.

The sequence AATCGA came in with a binding signal of 0.954.

TAACAA: the binding signal is 1.14.

TAGTCT displayed a binding signal of 1.04.

In turn, CTTAGG registered a binding signal of 1.11.

Turning to TAAGGT, the binding signal was 1.05.

Regarding CCTACA, the binding signal was 1.41.

AGGTAT came in with a binding signal of 0.942.

As for AAGCTC, the binding signal was 1.07.

Regarding TCACGC, the binding signal was found to be 1.15.

The sequence ATCAGC gave a binding signal of 0.876.

As to TTCGTT, the binding signal stood at 1.32.

Sequence ACAGAT showed a binding signal of 0.932.

TACTGG: the binding signal is 1.04.

In the case of GTTTCG, the binding signal came out at 1.12.

Consider TCCTTG, for which the binding signal was 1.95.

In turn, TTCTTC yielded a binding signal of 2.02.

GAAAGA registered a binding signal of 0.985.

CTCAAA gave a binding signal of 1.16.

TTCACT gave a binding signal of 1.32.

As to AATTCC, the binding signal is 2.39.

CTGACT yielded a binding signal of 1.32.

Turning to CTCTGT, the binding signal is 1.37.

AGCTAA: the binding signal stood at 0.967.

In turn, TTCTCA came in with a binding signal of 1.23.

In turn, GCTGAT came in with a binding signal of 1.03.
